In article doi:10.1101/2024.05.23.595491 (bioRxiv, 2024):
Results are given in words; binding and its absence hold for the method and conditions named. Binding seen in cells or lysates may run through a third protein. For part of these data: Binding calls can cover weak binding; strength is not graded here. For part of these data: Tags and fused reporters may be left off the sequences shown.

Assays:
[1] = molecular target: T1, αDB1 peptide Y713-P (phosphorylated Y713) (mouse); assay: pull-down
T1 sequence (peptide, phosphotyrosine at Y713 (pY); N-terminal DEST–Biotin–Ahx; C-terminal amide (NH2)): TQPEDGNYENESVRQ

[2] = molecular target: T2, AChRα cytoplasmic domain peptide P2 (mouse); assay: pull-down
T2 sequence (peptide, N-terminal biotin): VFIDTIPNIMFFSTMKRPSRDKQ

syntrophin-1-GFP (mouse) = assay: co-IP

Proline-rich domain of SH3BP2 fused to FLAG (mouse) (domain or fragment)
binding [1]: no binding
binding [2]: binds

B1: GST-mGFP-SH3BP2-FLAG (natural protein)
chain: MAAEEMQWPVPMKAIGAQNLLTMPGGVAKAGYLHKKGGTQLQLLKWPLRFVIIHKRCIYYFKSSTSASPQGAFSLSGYNRVMRAAEETTSNNVFPFKIIHISKKHRTWFFSASSEDERKSWMAFVRREIGHFHEKKELPLDTSDSSSDTDSFYGAVERPIDISLSSYPMDNEDYEHEDEDDSYLEPDSPGPMKLEDALTYPPAYPPPPVPVPRKPAFSDLPRAHSFTSKSPSPLLPPPPPKRGLPDTGSAPEDAKDALGLRRVEPGLRVPATPRRMSDPPMSNVPTVPNLRKHPCFRDSVNPGLEPWTPGHGTSSVSSSTTMAVATSRNCDKLKSFHLSSRGPPTSEPPPVPANKPKFLKIAEEPSPREAAKFAPVPPVAPRPPVQKMPMPEATVRPAVLPRPENTPLPHLQRSPPDGQSFRGFSFEKARQPSQADTGEEDSDEDYEKVPLPNSVFVNTTESCEVERLFKATDPRGEPQDGLYCIRNSSTKSGKVLVVWDESSNKVRNYRIFEKDSKFYLEGEVLFASVGSMVEHYHTHVLPSHQSLLLRHPYGYAGPR
binding (syntrophin-1-GFP (mouse)): binds
